PubChem BioAssay AID1259308 | NCATS, 2017
This is a random part of about 59,000 reagents. About 1,510 of all reagents (2.6%) were called active. 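Calls use total luciferase alone and ignore viability, so some active siRNAs may act by altering cell number.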 Unmarked entries are inactive. Reagents against one gene are numbered here. Further read-outs or replicates are left out here.

Assay: 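Knock-downs that increase output of a recombinant reporter protein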 (primary screen)
System: human HEK293 embryonic kidney cells stably expressing firefly luciferase (HEK-CMV-Luc2-Hygro)
Knock-down reagent: single siRNA against human genes, 0.8 pmol siRNA per well
Timing: 72 h
Detection: 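Reporter luminescence and viable-cell signal on separate replicate plates, given as percent of non-targeting control and median/MAD z-scores, plus per-cell luciferase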
Reading the numbers: total luciferase, z-score: higher = more reporter protein produced
Active means: 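Active when the median/MAD z-score for overall luciferase is greater than 3; a gene was taken forward for validation with new siRNAs if at least two of its three siRNAs passed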
Meaning of the calls: active = raised luciferase; inactive = no rise

{"gene": "CYBA (cytochrome b-245 alpha chain)", "siRNA no.": 1, "total luciferase, z-score": 0.615}
{"gene": "CYBA (cytochrome b-245 alpha chain)", "siRNA no.": 2, "total luciferase, z-score": -2.34}
{"gene": "CYBA (cytochrome b-245 alpha chain)", "siRNA no.": 3, "total luciferase, z-score": 0.714}
{"gene": "CUL4A (cullin 4A)", "siRNA no.": 1, "total luciferase, z-score": -0.701}
{"gene": "CUL4A (cullin 4A)", "siRNA no.": 2, "total luciferase, z-score": 0.822}
{"gene": "CUL4A (cullin 4A)", "siRNA no.": 3, "total luciferase, z-score": -0.482}
{"gene": "CYP4F22 (cytochrome P450 family 4 subfamily F member 22)", "siRNA no.": 1, "total luciferase, z-score": 2.15}
{"gene": "CYP4F22 (cytochrome P450 family 4 subfamily F member 22)", "siRNA no.": 2, "total luciferase, z-score": -0.773}
{"gene": "CYP4F22 (cytochrome P450 family 4 subfamily F member 22)", "siRNA no.": 3, "total luciferase, z-score": 0.0707}
{"gene": "CCDC174 (coiled-coil domain containing 174)", "siRNA no.": 1, "total luciferase, z-score": "5.24 (active)"}
{"gene": "CCDC174 (coiled-coil domain containing 174)", "siRNA no.": 2, "total luciferase, z-score": "3.15 (active)"}
{"gene": "CCDC174 (coiled-coil domain containing 174)", "siRNA no.": 3, "total luciferase, z-score": -0.0849}

Hits, of those listed so far:
{"gene": "CCDC174 (coiled-coil domain containing 174)", "siRNA no.": 1, "total luciferase, z-score": "5.24 (active)"}
{"gene": "CCDC174 (coiled-coil domain containing 174)", "siRNA no.": 2, "total luciferase, z-score": "3.15 (active)"}
